US20160201132A1, “GENE EXPRESSION BIOMARKERS OF LAQUINIMOD RESPONSIVENESS” (Teva Pharmaceutical Industries Ltd., priority 2013, published 2016)
Further values from the same series stand in other lists.

System: PBMC of RRMS patients
Test: Gene expression microarray analysis (HG-U133A-2) of PBMC from RRMS patients treated with LAQ, ancillary study to ALLEGRO
Assay type: in vivo, human
Settings: for Fold-Change (4.0 vs. 0.0): after six months of treatment
From the text: The goal of this ancillary study was to characterize gene expression changes and corresponding biological mechanisms induced in PBMC of RRMS patients by LAQ treatment. According to ALLEGRO clinical trial inclusion criteria, 25 patients were randomly assigned to receive LAQ (n=13, age 38.8±2.3 years, female/male ratio: 8/5) or placebo (n=12, age 37.2±3.4 years, female/male ratio: 8/4).
Peripheral blood samples were obtained from RRMS patients at baseline before start of LAQ treatment or placebo, after 0, 1, 6 and 24 month of treatment (visit 0, 1, 6 and 7 according to ALLEGRO clinical trial protocol correspondently) for gene microarray analysis.
Briefly, 1) Peripheral blood mononuclear cells (PBMC) were obtained from RRMS patients that participated in ALLEGRO and were treated daily with 0.6 mg LAQ or placebo. PBMC were subjected for gene expression analysis (HU-133A-2-Affymatrix arrays) at baseline and at 1 and 6 months of LAQ treatment; 2) Data was analyzed by Partek Genomics Solution software. Most informative genes (MIGs) were defined as those that differentiated between groups with p<0.01. Gene functional annotation, enrichment and pathway analysis were performed by Ingenuity software. For each time point, genes that changed in placebo group were excluded from further analysis; and 3) Verification of LAQ related mechanism was performed by Western blot.
PBMC were extracted from 15 ml peripheral blood, separated by Ficoll-Hypaque gradient. Total RNA was extracted using both Trizol (Invitrogen, USA) and Phase-Lock-Gel columns (Eppendorf, Germany) including a DNase digestion step. RNA integrity was assessed by RNA Experion automated electrophoresis system (Bio-Rad Laboratories, Hercules, Calif.).
Probe synthesis using 3 μg total RNA, hybridization, detection, and scanning was performed according to the standard Affymetrix, Inc. USA protocols; cDNA was synthesized using the Two-Cycle cDNA Synthesis Kit (Affymetrix, Inc., USA), and in-vitro transcription performed with the GeneChip IVT Labeling Kit (Affymetrix, Inc., USA). The biotin-labeled IVT-RNA was hybridized to HG-U133A-2 arrays containing 18,400 gene transcripts, each corresponding to 14,500 well-annotated human genes, washed in a GeneChip Fluidics Station 450 (Hewlett Packard, USA, GeneArray-™ scanner G2500A) and scanned according to the manufacturer's protocol (Affymetrix, Inc., USA).
Data analysis was performed on Partek Genomics Solution software (www.partek.com; Partek Incorporated, St. Louis, Mo.). Expression values were computed from raw CEL files by applying the Robust Multi-Chip Average (RMA) background correction algorithm. RMA correction included: 1) values background correction; 2) quintile normalization; 3) log 2 transformation; and 4) median polish summarization. The ANOVA, Repeated Measures and correlation analysis implicated in Partek software ware applied to evaluate LAQ effects. Most informative genes MIGs were defined as those that differentiated between experimental groups with p<0.01. All p-values were calculated for False Discovery Rate (FDR) multiple test correction at p=0.05.
Additionally, significance of individual genes was tested by parametric T-test and non parametric Mann-Whitney test using Bootstrapping approach based on repeated permutations of the data with 5% FDR for multiple testing.
Gene functional annotation, enrichment, and pathway analyses to identify the leading biological pathways that operated under LAQ treatment were performed by Ingenuity Pathways Analysis software (www.ingenuity.com).
ANOVA analysis was used to compare PBMC gene expression after 1, 6 or 24 month of LAQ treatment with baseline gene expression.
For each time point inventors performed analysis source of variation in dataset. (FIG. 1). Age, gender and batch effects were considered as confounders regarding LAQ or Placebo related changes. For each time point genes associated with Placebo effect were evaluated and excluded from further analysis. […]

SMILES: CCN(C(=O)c1c(O)c2c(Cl)cccc2n(C)c1=O)c1ccccc1 [LAQ, 5-chloro-N-ethyl-4-hydroxy-1-methyl-2-oxo-N-phenyl-1,2-dihydroquinoline-3-carboxamide]
- Fold-Change (1.0 vs. 0.0) (221764_at C19orf22, one month of treatment vs baseline): −1.1412
- Fold-Change (1.0 vs. 0.0) (221942_s_at GUCY1A3, one month of treatment vs baseline): −1.708
- Fold-Change (1.0 vs. 0.0) (222121_at SGEF, one month of treatment vs baseline): −1.1164
- Fold-Change (1.0 vs. 0.0) (222382_x_at NUP205, one month of treatment vs baseline): −1.142
- Fold-Change (4.0 vs. 0.0) (ABCA2 expression): −1.205
- Fold-Change (4.0 vs. 0.0) (ABCB11 expression): −1.224
- Fold-Change (1.0 vs. 0.0) (ABL1 202123_s_at, one month of treatment): −1.102
- Fold-Change (4.0 vs. 0.0) (ACOT11 expression): −1.21
- Fold-Change (1.0 vs. 0.0) (ACSBG1 206465_at, one month of treatment): −1.549
- Fold-Change (4.0 vs. 0.0) (ACTC1 expression): −1.201
- Fold-Change (4.0 vs. 0.0) (ACTL6B expression): −1.195
- Fold-Change (4.0 vs. 0.0) (ADAM12 expression): −1.197
- Fold-Change (4.0 vs. 0.0) (ADAM22 expression): −1.195
- Fold-Change (4.0 vs. 0.0) (ADCY2 expression): −1.204
- Fold-Change (4.0 vs. 0.0) (ADH7 expression): −1.202
- Fold-Change (4.0 vs. 0.0) (ALDH1A3 expression): −1.208
- Fold-Change (4.0 vs. 0.0) (ALDH3A1 expression): −1.202
- Fold-Change (1.0 vs. 0.0) (ALOX12 207206_s_at, one month of treatment): −1.836
- Fold-Change (4.0 vs. 0.0) (AMH expression): −1.216
- Fold-Change (4.0 vs. 0.0) (AOC2 expression): −1.21
- Fold-Change (4.0 vs. 0.0) (AP3M2 expression): −1.197
- Fold-Change (4.0 vs. 0.0) (APBB2 expression): −1.204
- Fold-Change (4.0 vs. 0.0) (APOC2 expression): −1.21
- Fold-Change (4.0 vs. 0.0) (ARHGAP1 expression): −1.197
- Fold-Change (4.0 vs. 0.0) (ARHGEF4 expression): −1.224
- Fold-Change (4.0 vs. 0.0) (ASCL1 expression): −1.22
- Fold-Change (4.0 vs. 0.0) (ATP2B2 expression): −1.205
- Fold-Change (1.0 vs. 0.0) (ATP9A 212062_at, one month of treatment): −1.441
- Fold-Change (4.0 vs. 0.0) (AVL9 expression): −1.214
- Fold-Change (4.0 vs. 0.0) (B3GALT5 expression): −1.198
- Fold-Change (1.0 vs. 0.0) (BAT2D1 211948_x_at, one month of treatment): −1.083
- Fold-Change (4.0 vs. 0.0) (BTN1A1 expression): −1.199
- Fold-Change (4.0 vs. 0.0) (C1orf106 expression): −1.219
- Fold-Change (1.0 vs. 0.0) (C5orf4 48031_r_at, one month of treatment): −1.519
- Fold-Change (1.0 vs. 0.0) (C5orf4 220751_s_at, one month of treatment): −1.967
- Fold-Change (4.0 vs. 0.0) (C6 expression): −1.221
- Fold-Change (4.0 vs. 0.0) (C6orf208 expression): −1.222
- Fold-Change (4.0 vs. 0.0) (C8B expression): −1.2033
- Fold-Change (4.0 vs. 0.0) (C9orf7 expression): −1.2011
- Fold-Change (4.0 vs. 0.0) (C11orf20 expression): −1.2225
- Fold-Change (4.0 vs. 0.0) (C16orf68 expression): −1.22
- Fold-Change (4.0 vs. 0.0) (C20orf195 expression): −1.197
- Fold-Change (1.0 vs. 0.0) (CA2 209301_at, one month of treatment): −1.69
- Fold-Change (4.0 vs. 0.0) (CACNB1 expression): −1.196
- Fold-Change (1.0 vs. 0.0) (CALD1 201615_x_at, one month of treatment): −1.442
- Fold-Change (1.0 vs. 0.0) (CALM3 200622_x_at, one month of treatment): −1.2967
- Fold-Change (4.0 vs. 0.0) (CASR expression): −1.211
- Fold-Change (4.0 vs. 0.0) (CCDC33 expression): −1.209
- Fold-Change (4.0 vs. 0.0) (CCDC40 expression): −1.219
- Fold-Change (4.0 vs. 0.0) (CCDC87 expression): −1.201
- Fold-Change (4.0 vs. 0.0) (CCDC134 expression): −1.219
- Fold-Change (4.0 vs. 0.0) (CCT8 expression): −1.215
- Fold-Change (4.0 vs. 0.0) (CD84 expression): −1.224
- Fold-Change (4.0 vs. 0.0) (CD177 expression): −1.223
- Fold-Change (1.0 vs. 0.0) (CDC14B 221556_at, one month of treatment): −1.488
- Fold-Change (4.0 vs. 0.0) (CDC42BPA expression): −1.217
- Fold-Change (4.0 vs. 0.0) (CDH7 expression): −1.2116
- Fold-Change (1.0 vs. 0.0) (CDK2AP1 201938_at, one month of treatment): −1.366
- Fold-Change (4.0 vs. 0.0) (CDS1 expression): −1.196
- Fold-Change (1.0 vs. 0.0) (CELSR3 40020_at, one month of treatment): −1.121
- Fold-Change (1.0 vs. 0.0) (CELSR3 205165_at, one month of treatment): −1.165
- Fold-Change (4.0 vs. 0.0) (CHAF1B expression): −1.196
- Fold-Change (4.0 vs. 0.0) (CHD2 expression): −1.217
- Fold-Change (4.0 vs. 0.0) (CHIT1 expression): −1.207
- Fold-Change (4.0 vs. 0.0) (CHRNA2 expression): −1.217
- Fold-Change (4.0 vs. 0.0) (CIITA expression): −1.1982
- Fold-Change (4.0 vs. 0.0) (CKM expression): −1.208
- Fold-Change (1.0 vs. 0.0) (CLCA3P 220810_at, one month of treatment): −1.141
- Fold-Change (4.0 vs. 0.0) (CLDN18 expression): −1.214
- Fold-Change (1.0 vs. 0.0) (CLEC1B 220496_at, one month of treatment): −2.045
- Fold-Change (4.0 vs. 0.0) (CLIC4 expression): −1.197
- Fold-Change (1.0 vs. 0.0) (CLSTN2 219414_at, one month of treatment): −1.128
- Fold-Change (4.0 vs. 0.0) (CLTB expression): −1.198
- Fold-Change (4.0 vs. 0.0) (CNOT4 expression): −1.205
- Fold-Change (4.0 vs. 0.0) (CPSF1 expression): −1.205
- Fold-Change (4.0 vs. 0.0) (CRKL expression): −1.202
- Fold-Change (4.0 vs. 0.0) (CRYGB expression): −1.207
- Fold-Change (4.0 vs. 0.0) (CRYM expression): −1.201
- Fold-Change (1.0 vs. 0.0) (CTNNAL1 202468_s_at, one month of treatment): −1.416
- Fold-Change (1.0 vs. 0.0) (CTSA 200661_at, one month of treatment): −1.292
- Fold-Change (1.0 vs. 0.0) (CXCL5 214974_x_at, one month of treatment): −1.731
- Fold-Change (4.0 vs. 0.0) (CYP1B1 expression): −1.204
